Reference: doi:10.1101/2025.06.18.660405 (bioRxiv, 2025)
Results are given in words; binding and its absence hold for the method and conditions named. Sequences can lack the tags named with a protein.

T1: GST-GAR1 (human) (UniProt Q9NY12)
T1 sequence: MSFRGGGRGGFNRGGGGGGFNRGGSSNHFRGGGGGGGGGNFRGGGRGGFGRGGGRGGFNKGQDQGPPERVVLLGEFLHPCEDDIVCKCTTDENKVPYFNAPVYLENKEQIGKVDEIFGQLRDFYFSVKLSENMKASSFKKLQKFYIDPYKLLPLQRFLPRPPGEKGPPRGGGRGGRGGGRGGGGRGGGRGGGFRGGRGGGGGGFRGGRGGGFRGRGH

B1: GST-GAR1 (natural protein, human, UniProt Q9NY12 1-217, looked up)
chain: T1 sequence

Assays:
GST-GAR1 (human) = biological target: T1, GST-GAR1 (human); experiment: pull-down
MBP-FBLΔIDR (human) = experiment: pull-down

Molecule | binding (GST-GAR1 (human)) | binding (MBP-FBLΔIDR (human))
MBP-FBLΔIDR (human) (domain or fragment) | no binding | 
B1 |  | no binding
